Laboratory results from article PMC4862318.
No constants are given. Whether binding was seen depends on the method and setting. Some entries that bind do so weakly or less than the wild type. Each block holds one binder with its values, some of them ahead of it.

How the values were obtained:
[1] = molecular target: T1, OsHOX24ΔC (C-terminal deletion construct of OsHOX24, 1–164 aa) (rice) (UniProt Q6H6S3); assay: two-hybrid; GAL4 system in yeast AH109; bait pGBKT7 with the truncated (ΔC) ORF co-transformed with prey pGADT7 with full-length or truncated ORF; growth on SD-Trp-Leu and SD-Trp-Leu-His-Ade, 30°C, 3–5 days
T1 sequence: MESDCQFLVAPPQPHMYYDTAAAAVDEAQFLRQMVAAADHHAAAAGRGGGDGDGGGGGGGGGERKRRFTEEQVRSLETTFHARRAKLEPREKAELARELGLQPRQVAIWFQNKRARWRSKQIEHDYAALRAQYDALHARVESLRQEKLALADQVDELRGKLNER

[2] = molecular target: T2, OsHOX22ΔC (C-terminal deletion construct of OsHOX22, 1–173 aa) (rice) (UniProt Q7XUJ5); assay: as above
T2 sequence: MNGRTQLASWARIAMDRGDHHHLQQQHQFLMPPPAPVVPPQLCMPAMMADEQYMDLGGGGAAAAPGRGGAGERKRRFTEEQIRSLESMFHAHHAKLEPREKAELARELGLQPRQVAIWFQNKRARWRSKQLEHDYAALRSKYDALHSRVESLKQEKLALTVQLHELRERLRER

B1: OsHOX22 full-length (protein, UniProt Q7XUJ5 1-276)
chain: MNGRTQLASWARIAMDRGDHHHLQQQHQFLMPPPAPVVPPQLCMPAMMADEQYMDLGGGGAAAAPGRGGAGERKRRFTEEQIRSLESMFHAHHAKLEPREKAELARELGLQPRQVAIWFQNKRARWRSKQLEHDYAALRSKYDALHSRVESLKQEKLALTVQLHELRERLREREERSGNGGAATTAASSSSCNGSGSEEVDDDDDKRNAAAGCLDLEPPESCVLGGATCATPADVSVESDQCDDQLDYDEGLFPESFCATPELWEPWPLVEWNAVA
binding [1]: binds
binding [2]: binds

B3: OsHOX22ΔC (C-terminal deletion construct of OsHOX22, 1–173 aa) (domain or fragment, UniProt Q7XUJ5 1-173)
chain: T2 sequence
binding [1]: binds
binding [2]: binds

Now from value to binder:

binding [1]: binds
binding [2]: binds
B2: OsHOX24ΔC (C-terminal deletion construct of OsHOX24, 1–164 aa) (domain or fragment, UniProt Q6H6S3 1-164)
chain: T1 sequence

binding [1]: binds
binding [2]: binds
B4: OsHOX24 full-length (protein, UniProt Q6H6S3 1-261)
chain: MESDCQFLVAPPQPHMYYDTAAAAVDEAQFLRQMVAAADHHAAAAGRGGGDGDGGGGGGGGGERKRRFTEEQVRSLETTFHARRAKLEPREKAELARELGLQPRQVAIWFQNKRARWRSKQIEHDYAALRAQYDALHARVESLRQEKLALADQVDELRGKLNERQDQSGSCDGGGAEGDDDDKRNSVMNASSSGLVEEDYVSCLAVPVVDVSEDGSAACGGSSYEYDHHLDYLGGGQLPDPFCGMPDLWEIWPMVEWNAVA
